These results are taken from PubChem BioAssay AID493014 (National Center for Advancing Translational Sciences (NCATS), 2011).

Some of the results follow. These are further read-outs of the screen, such as a control signal, another cell line or another target. No call is given for them. The list favours compounds with an active or inconclusive main result. Words in brackets tell the shape of the fitted curve; partial curves, single points and poor fits give uncertain potencies.

The nature of this experiment: qHTS Assay to Find Inhibitors of Chronic Active B-Cell Receptor Signaling. The settings on record: ABC-DLBCL IkBa-CBG/CBR reporter, luminescence ratio (green luciferase fused to IkBa over red control in TMD8 lymphoma cells), 4 h. The method, boiled down: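 Cell line TMD8 (human ABC DLBCL), stably expressing tet-inducible CBG68-IkBa fusion and CBR; IMDM/0.5% FBS; cpd up to 46 uM; dox induction, 4 h, 37C/5% CO2; dual luminescence; green/red ratio; MG132 control.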

Where [1] appears, read: measured here: CBR red luminescence, cell number.
[2] abbreviates: measured here: IkBa-CBG green luminescence.

As usually defined, the AC50 is the midpoint of the concentration-response curve, whichever way the signal moves. Regarding `COc1cc(C2Nc3cc(Cl)c(S(N)(=O)=O)cc3S(=O)(=O)N2)cc(OC)c1OC` (stereo not given), the AC50 under setting [1] was 35.5 µM [falling, single point].

Turning to `CC1=CC2=NC(=O)CC(C)(C(=O)N(CC(=O)NC3CCCC3)c3cc(C)cc(C)c3)N2C=C1` (stereo not given), the AC50 under setting [1] was 0.562 µM [rising, full curve, poor fit].

For `S=C(NCCCc1ccccc1)NC1CCCCC1`, the half-maximal activity concentration (AC50) under setting [1] is 5.62 µM [rising, full curve, poor fit].

As to `Cn1c(N)c(C(=O)/C=C/c2ccccc2)c(=O)[nH]c1=O`, under setting [1], the concentration at half-maximal activity (AC50) is 3.98 µM [falling, full curve].

As to `Cc1cccc(OCc2nnc(SCC(=O)Nc3ccc(C)c(C)c3)o2)c1`, the AC50 under setting [1] was 7.31 µM [rising, partial curve, poor fit].

On to `O=C(O)c1cccc(-c2ccc(/C=N/Nc3ccc([N+](=O)[O-])cc3)o2)c1`, for which the AC50 under setting [1] was 0.562 µM [rising, full curve].

With `Cc1ccc(OCC(=O)n2nc(C)cc2C)c(Br)c1`, under setting [1], the half-maximal activity concentration (AC50) is 23.1 µM [rising, single point].

On to `CCOc1ccccc1NC(=O)CC1Nc2cc(C)c(C)cc2NC1=O` (stereo not given), for which, under setting [1], the AC50 is 2.31 µM [falling, partial curve, poor fit].

On to `CCN(CC)C(=O)Cn1cc(C(=O)C(=O)N2CCN(c3ccccc3)CC2)c2ccccc21`, for which the AC50 under setting [1] is 35.5 µM [falling, single point].

With `O=C(NCC(c1ccco1)S(=O)(=O)c1cccs1)c1ccc(F)c(F)c1` (stereo not given), the AC50 under setting [1] is 6.31 µM [rising, single point].

As to `NNC(=O)c1[nH]c2ccccc2c1-c1ccccc1`, the AC50 reads like this: under setting [1], 0.708 µM [rising, partial curve, poor fit]; under setting [2], 0.158 µM [falling, full curve, poor fit].

For `CC(=O)N(C)c1ccc(NC(=O)c2ccc([N+](=O)[O-])cc2Cl)cc1`, under setting [1], the concentration at half-maximal activity (AC50) was 16.4 µM [rising, partial curve].

For `COc1ccc(CNCc2ccc3ccccc3c2)c(OC)c1`, the AC50 under setting [1] was 12.6 µM [falling, single point].

For the compound `Cc1ccc(-c2nnc3ccc(SCC(=O)Nc4cc(C)on4)nn23)cc1`, the half-maximal activity concentration (AC50) under setting [1] is 1.41 µM [rising, partial curve].

For `O=C(O)CCc1ccc(-c2ccccc2)n1Cc1ccco1`, under setting [1], the half-maximal activity concentration (AC50) was 0.184 µM [falling, full curve, poor fit].

As for `CCOc1cc(C2NC(=O)NC(O)(C(F)(F)F)C2C(=O)c2ccccc2)ccc1OC` (stereo not given), the concentration at half-maximal activity (AC50) under setting [1] is 14.6 µM [rising, single point].

Turning to `COc1ccc(OC)c(C2=NS(=O)(=O)N(C)C(C(=O)Nc3ccc(F)cc3F)=C2)c1`, the AC50 under setting [1] is 11.2 µM [falling, partial curve].

For the compound `O=C(Nc1cccc(C(F)(F)F)c1)c1cccnc1N1CCN(c2ccccc2)CC1`, the AC50 under setting [1] is 3.66 µM [falling, full curve].

Take `O=C(CCNC(=O)c1ccccc1Cl)Nc1nc(-c2ccccc2Cl)cs1`: the AC50 reads like this: under setting [1], 1.64 µM [falling, full curve, poor fit]; under setting [2], 2.91 µM [rising, full curve, poor fit].

Take `COc1cc(NC(=O)CSc2ccc(-c3cccnc3)nn2)cc(OC)c1`: the AC50 under setting [1] was 14.1 µM [falling, single point].

Regarding `Cc1cc(C)cc(OCC(=O)OCC(=O)NC2CCCCCCC2)c1`, the concentration at half-maximal activity (AC50) under setting [1] is 25.9 µM [rising, single point].

As for `Cn1c(CN2CCCC2)nc2cc(NC(=O)c3cccs3)ccc21`, under setting [1], the AC50 is 16.4 µM [falling, single point].

`O=C(NCc1ccco1)c1ccc(N2CCCCC2)c([N+](=O)[O-])c1`: under setting [1], the AC50 was 2.59 µM [rising, partial curve, poor fit].

On to `CCOc1ccc(C(=O)/C=C/c2cn(CN3CCN(C)CC3)c3ccccc23)cc1`, for which the AC50 under setting [1] is 35.5 µM [falling, single point].

`CN(C)CCNC(=S)Nc1ccc(-c2nc3ccccc3[nH]2)cc1`: the concentration at half-maximal activity (AC50) is, setting by setting: under setting [1], 10 µM [falling, partial curve]; under setting [2], 5.01 µM [rising, partial curve, poor fit].

Consider `O=C(NCCCc1ccccc1)c1ccccc1`, for which the concentration at half-maximal activity (AC50) under setting [1] is 7.08 µM [rising, partial curve, poor fit].

As for `COC(=O)c1sc(NC(=O)CSc2nncs2)c(C(=O)OC)c1C`, the AC50 under setting [1] is 35.5 µM [falling, partial curve, poor fit].

Consider `COc1ccc2c(C)cc(Sc3nnnn3-c3ccccc3)nc2c1`, for which the half-maximal activity concentration (AC50) under setting [1] is 29.1 µM [falling, single point].

Take `COc1cccc(N2CCN(C(=O)c3ccc(CS(=O)c4ccccc4C)o3)CC2)c1` (stereo not given): the AC50 runs as follows: under setting [1], 35.5 µM [rising, single point]; under setting [2], 11.2 µM [falling, partial curve].

Take `Cc1ccc(/C=N/NC(=O)COc2ccccc2-c2ccccc2)cc1`: the concentration at half-maximal activity (AC50) by setting is: under setting [1], 2.59 µM [rising, full curve]; under setting [2], 0.461 µM [falling, full curve].

`CNC(=S)Nc1ccc([N+](=O)[O-])cc1`: the half-maximal activity concentration (AC50) under setting [1] is 5.01 µM [rising, partial curve].

On to `CCOc1ccc(N(CC)C(=O)Cc2c(C(=O)O)n(C)c3ccccc23)cc1`, for which the half-maximal activity concentration (AC50) under setting [1] is 5.62 µM [falling, single point].

Consider `CCN(CC)S(=O)(=O)c1ccc(C(=O)NCCCN=C2NS(=O)(=O)c3ccccc32)cc1`, for which the half-maximal activity concentration (AC50) under setting [1] was 29.1 µM [rising, single point].

Regarding `Cc1cc(-c2cc(-c3ccccc3)on2)nc(NC2CCCC2)n1`, under setting [1], the AC50 is 20 µM [rising, single point].

`COC(=O)CN1C(c2ccccc2)=Nc2ccc(Cl)cc2C1c1ccccc1` (stereo not given): the concentration at half-maximal activity (AC50) was 15.8 µM [falling, partial curve] under setting [1] and 17.8 µM [rising, partial curve, poor fit] under setting [2].

Regarding `Cc1cc(C)c(N=Cc2c(O)c3ccccc3oc2=O)c(C)c1`, under setting [1], the AC50 was 2.82 µM [falling, full curve].

Take `CC(O)Cc1nsc(NC(=O)c2cccs2)n1` (stereo not given): under setting [1], the concentration at half-maximal activity (AC50) was 14.6 µM [falling, partial curve, poor fit].

In the case of `Cc1cc(C)nc(N2CCC(C(=O)NCCc3ccc(Cl)cc3)CC2)n1`, the concentration at half-maximal activity (AC50) under setting [1] is 3.55 µM [rising, full curve, poor fit].

Consider `Nc1c(C(=O)c2ccccc2)oc2ccc([N+](=O)[O-])cc12`, for which, under setting [1], the AC50 was 12.6 µM [falling, partial curve].
